Measurements from the supplement of paper PMC10849652.
The list shows a part of the results.

Amino acid sequences for entries named in this document (tags omitted). A change or cut given only in a name is not applied to a line headed by its entry.
UniProt O15258: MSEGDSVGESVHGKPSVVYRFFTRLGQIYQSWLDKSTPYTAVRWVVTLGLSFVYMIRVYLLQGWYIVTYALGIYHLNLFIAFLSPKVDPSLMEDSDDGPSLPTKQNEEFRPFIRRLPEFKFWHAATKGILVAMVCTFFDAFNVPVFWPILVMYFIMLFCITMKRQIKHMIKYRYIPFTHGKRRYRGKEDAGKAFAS
UniProt Q9HBH5: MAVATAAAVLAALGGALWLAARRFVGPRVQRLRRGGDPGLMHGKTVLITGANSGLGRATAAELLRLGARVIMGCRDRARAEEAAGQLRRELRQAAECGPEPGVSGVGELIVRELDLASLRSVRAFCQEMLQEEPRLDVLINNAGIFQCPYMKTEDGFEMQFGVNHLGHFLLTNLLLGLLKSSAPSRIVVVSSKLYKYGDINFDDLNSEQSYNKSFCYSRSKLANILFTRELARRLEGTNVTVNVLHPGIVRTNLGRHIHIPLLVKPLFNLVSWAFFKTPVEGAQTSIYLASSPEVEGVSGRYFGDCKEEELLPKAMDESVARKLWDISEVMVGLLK
UniProt Q9NW64: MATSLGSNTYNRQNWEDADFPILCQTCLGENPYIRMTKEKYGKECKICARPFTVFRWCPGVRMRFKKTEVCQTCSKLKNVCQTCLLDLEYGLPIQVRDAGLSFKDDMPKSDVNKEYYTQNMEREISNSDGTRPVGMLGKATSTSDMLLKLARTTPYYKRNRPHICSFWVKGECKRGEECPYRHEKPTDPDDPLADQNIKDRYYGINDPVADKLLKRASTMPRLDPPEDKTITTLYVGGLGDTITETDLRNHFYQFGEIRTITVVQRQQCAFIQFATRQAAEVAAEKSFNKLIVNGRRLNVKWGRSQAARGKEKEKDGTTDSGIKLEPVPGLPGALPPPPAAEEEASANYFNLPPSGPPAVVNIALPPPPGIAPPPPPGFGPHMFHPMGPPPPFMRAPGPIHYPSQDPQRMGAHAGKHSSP
UniProt Q9BYM8: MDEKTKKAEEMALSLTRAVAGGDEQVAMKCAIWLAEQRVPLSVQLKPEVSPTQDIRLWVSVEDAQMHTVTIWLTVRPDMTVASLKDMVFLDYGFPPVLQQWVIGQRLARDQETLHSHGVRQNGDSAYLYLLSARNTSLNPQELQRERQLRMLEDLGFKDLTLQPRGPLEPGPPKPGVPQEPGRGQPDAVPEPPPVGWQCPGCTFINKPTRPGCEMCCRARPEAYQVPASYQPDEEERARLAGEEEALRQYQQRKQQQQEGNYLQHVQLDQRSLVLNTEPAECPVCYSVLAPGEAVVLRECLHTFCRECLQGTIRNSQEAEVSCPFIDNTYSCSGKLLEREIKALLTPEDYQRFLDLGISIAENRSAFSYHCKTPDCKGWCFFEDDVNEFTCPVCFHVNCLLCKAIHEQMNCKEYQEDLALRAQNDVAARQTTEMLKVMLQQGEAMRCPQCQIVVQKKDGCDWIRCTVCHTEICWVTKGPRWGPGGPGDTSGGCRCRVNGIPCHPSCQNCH
UniProt Q86U06: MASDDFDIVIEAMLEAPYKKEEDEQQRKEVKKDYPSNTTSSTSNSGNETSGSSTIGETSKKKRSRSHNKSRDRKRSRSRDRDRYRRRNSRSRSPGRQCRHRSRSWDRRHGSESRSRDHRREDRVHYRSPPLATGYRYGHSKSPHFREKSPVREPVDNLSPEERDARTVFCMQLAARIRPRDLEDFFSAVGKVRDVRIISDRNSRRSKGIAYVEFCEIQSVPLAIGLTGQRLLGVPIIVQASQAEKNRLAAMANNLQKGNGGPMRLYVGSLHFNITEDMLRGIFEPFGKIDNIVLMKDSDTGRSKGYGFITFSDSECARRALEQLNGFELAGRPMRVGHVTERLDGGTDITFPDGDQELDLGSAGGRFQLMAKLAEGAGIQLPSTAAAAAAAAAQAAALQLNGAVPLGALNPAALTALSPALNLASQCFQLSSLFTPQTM
UniProt Q9NTZ6: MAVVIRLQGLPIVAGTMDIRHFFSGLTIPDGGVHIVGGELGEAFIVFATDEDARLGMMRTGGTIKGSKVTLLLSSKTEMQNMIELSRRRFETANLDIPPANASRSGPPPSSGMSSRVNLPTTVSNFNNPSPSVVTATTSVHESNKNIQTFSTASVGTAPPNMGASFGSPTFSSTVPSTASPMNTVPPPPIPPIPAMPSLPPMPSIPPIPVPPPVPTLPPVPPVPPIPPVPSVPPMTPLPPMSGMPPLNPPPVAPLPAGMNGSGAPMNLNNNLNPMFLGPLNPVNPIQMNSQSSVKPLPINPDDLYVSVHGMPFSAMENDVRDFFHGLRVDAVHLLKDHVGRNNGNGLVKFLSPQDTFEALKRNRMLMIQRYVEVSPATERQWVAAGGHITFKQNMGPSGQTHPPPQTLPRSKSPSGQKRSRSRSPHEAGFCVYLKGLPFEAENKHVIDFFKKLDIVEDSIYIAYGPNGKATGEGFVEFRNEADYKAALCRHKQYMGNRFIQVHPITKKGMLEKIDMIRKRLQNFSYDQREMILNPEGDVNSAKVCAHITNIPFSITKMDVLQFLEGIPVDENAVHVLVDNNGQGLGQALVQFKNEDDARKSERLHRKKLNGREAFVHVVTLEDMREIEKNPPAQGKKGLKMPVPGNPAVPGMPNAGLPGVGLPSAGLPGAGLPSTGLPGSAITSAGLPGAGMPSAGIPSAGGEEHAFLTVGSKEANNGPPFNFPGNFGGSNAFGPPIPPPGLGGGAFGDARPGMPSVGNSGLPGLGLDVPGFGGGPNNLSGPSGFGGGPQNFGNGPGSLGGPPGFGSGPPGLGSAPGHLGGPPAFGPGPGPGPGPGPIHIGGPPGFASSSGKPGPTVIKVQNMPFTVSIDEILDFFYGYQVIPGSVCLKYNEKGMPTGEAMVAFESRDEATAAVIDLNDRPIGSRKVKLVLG
UniProt Q8N5W9: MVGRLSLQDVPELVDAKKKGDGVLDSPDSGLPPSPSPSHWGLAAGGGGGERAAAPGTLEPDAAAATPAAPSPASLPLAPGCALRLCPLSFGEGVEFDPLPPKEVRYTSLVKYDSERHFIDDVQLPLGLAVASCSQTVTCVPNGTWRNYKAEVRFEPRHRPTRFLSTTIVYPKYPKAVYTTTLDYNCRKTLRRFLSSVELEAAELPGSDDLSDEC
UniProt P46063: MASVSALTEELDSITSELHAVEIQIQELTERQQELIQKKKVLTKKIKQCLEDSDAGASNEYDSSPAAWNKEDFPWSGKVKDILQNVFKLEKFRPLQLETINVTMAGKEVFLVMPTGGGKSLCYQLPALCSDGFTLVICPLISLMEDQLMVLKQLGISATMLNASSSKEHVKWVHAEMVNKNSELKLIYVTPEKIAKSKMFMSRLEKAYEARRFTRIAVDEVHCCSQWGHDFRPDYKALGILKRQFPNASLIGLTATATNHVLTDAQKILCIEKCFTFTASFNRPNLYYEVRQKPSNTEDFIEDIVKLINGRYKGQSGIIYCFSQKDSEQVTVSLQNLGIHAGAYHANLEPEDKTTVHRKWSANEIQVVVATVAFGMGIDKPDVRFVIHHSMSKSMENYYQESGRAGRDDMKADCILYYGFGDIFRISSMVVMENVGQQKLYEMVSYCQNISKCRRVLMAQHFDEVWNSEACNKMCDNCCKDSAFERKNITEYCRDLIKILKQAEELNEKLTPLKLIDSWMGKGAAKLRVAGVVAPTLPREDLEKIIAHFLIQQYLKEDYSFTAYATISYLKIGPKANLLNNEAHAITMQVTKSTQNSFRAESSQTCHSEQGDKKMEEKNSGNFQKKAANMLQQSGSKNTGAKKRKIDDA
UniProt P35251: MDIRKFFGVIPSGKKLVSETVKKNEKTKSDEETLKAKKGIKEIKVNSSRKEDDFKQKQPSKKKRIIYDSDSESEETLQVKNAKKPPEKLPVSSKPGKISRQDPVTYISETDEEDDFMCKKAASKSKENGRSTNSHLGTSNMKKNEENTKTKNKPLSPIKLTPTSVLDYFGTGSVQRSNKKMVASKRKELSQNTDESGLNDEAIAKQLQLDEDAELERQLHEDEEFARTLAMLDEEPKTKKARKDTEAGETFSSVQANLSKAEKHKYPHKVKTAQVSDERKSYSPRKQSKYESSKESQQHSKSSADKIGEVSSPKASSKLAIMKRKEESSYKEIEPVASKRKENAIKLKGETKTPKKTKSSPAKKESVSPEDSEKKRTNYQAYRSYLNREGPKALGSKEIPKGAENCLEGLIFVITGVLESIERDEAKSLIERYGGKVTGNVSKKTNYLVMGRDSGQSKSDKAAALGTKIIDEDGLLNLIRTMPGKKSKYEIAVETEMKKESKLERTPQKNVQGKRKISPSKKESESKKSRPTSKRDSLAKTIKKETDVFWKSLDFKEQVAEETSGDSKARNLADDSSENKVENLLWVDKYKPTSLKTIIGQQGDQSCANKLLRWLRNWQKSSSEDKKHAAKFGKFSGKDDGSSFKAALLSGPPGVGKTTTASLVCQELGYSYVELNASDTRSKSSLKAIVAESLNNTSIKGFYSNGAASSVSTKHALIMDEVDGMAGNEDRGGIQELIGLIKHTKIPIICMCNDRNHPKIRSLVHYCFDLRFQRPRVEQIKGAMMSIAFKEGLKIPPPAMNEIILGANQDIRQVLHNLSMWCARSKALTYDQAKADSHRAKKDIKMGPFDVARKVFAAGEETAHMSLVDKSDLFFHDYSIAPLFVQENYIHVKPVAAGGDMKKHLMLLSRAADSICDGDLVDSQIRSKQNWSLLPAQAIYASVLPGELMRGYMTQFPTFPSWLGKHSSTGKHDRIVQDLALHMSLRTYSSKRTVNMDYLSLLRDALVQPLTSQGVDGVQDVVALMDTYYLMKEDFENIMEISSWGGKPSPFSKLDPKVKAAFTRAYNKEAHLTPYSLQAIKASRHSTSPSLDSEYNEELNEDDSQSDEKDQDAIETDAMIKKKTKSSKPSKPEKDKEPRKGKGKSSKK
UniProt Q5T8P6: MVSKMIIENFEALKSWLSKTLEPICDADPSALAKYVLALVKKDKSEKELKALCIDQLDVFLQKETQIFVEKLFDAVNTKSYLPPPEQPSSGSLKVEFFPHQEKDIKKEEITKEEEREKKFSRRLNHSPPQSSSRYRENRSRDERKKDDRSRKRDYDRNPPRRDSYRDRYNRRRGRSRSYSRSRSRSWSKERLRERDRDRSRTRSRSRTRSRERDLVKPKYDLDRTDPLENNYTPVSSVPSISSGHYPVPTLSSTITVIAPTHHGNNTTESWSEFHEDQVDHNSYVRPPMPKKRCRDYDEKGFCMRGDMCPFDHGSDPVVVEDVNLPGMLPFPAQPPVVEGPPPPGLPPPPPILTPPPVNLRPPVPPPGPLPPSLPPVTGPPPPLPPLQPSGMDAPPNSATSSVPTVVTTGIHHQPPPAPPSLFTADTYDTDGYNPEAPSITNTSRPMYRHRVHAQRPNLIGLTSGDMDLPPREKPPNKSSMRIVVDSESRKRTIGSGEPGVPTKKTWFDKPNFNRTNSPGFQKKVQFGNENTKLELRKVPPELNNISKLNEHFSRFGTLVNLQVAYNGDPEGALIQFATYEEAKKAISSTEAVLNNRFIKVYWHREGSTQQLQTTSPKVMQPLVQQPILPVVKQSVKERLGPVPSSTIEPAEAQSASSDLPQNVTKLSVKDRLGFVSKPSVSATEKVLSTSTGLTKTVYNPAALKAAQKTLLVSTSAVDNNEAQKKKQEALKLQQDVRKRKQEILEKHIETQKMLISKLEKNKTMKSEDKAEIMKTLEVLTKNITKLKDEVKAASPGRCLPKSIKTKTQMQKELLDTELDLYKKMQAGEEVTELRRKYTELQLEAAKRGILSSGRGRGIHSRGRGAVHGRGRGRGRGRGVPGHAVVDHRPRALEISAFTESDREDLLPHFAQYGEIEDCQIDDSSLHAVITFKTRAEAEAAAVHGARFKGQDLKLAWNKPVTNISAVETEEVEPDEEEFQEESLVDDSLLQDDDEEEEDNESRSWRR
UniProt Q16576, whole entry, looked up: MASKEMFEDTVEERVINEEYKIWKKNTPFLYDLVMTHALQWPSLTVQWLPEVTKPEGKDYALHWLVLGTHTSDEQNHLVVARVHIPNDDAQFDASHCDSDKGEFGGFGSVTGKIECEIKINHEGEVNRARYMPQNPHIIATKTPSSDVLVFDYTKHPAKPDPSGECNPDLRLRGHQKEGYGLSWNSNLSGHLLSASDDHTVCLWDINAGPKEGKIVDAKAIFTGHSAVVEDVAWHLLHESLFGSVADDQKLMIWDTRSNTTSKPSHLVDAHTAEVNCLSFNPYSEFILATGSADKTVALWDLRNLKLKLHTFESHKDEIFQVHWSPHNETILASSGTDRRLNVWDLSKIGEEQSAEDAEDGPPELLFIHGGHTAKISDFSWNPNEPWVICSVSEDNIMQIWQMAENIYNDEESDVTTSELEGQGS

What was measured:
Assay in all cases: log2 fold change, soluble protein after heating vs DMSO (PISA); higher = thermal stabilisation; K562 lysate, 10 uM; active = over 0.2 and 3.5 SD of the protein, either way, in both replicates (recomputed)
alvocidib = compound: CN1CC[C@H](c2c(O)cc(O)c3c(=O)cc(-c4ccccc4Cl)oc23)[C@H](O)C1 [alvocidib]
Outline: (§1)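 Dounce homogenisation of K562 pellets in PBS pH 7.4 with 1 mM MgCl2 produced a crude extract, used at 1 mg/mL protein. Exposure to 10 μM compound lasted 30 min, and aliquots were then heated for 3 min across 48°C-58°C, pooled and brought to 0.5% NP-40 at 4°C. The supernatant after 21,000xg for 90 min was quantified by TMTpro 16plex LC-MS/MS with channel sums equalised. Duplicate values are given as log-two fold change in thermal stability relative to solvent controls.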

Tubastatin A = compound: CN1CCc2c(c3ccccc3n2Cc2ccc(C(=O)NO)cc2)C1 [Tubastatin A]
Outline: as §1

[1] = compound: CNC(=O)C1=CC=CC=C1NC2=NC(=NC=C2Cl)NC3=C(C=C(C=C3)N4CCOCC4)OC
Outline: as §1

defactinib = compound: CNC(=O)c1ccc(Nc2ncc(C(F)(F)F)c(NCc3nccnc3N(C)S(C)(=O)=O)n2)cc1 [defactinib]
Outline: as §1

[2] = compound: CNc1nc(-c2ccc3c(N)n[nH]c3c2)cc(N2C[C@@H](C(=O)NC3CCCCC3)CC[C@H]2C)n1
Outline: as §1

encorafenib = compound: COC(=O)N[C@@H](C)CNc1nccc(-c2cn(C(C)C)nc2-c2cc(Cl)cc(NS(C)(=O)=O)c2F)n1 [encorafenib]
Outline: as §1

[3] = compound: COC(=O)[C@H](CCSC)NC(=O)C1=C(C=C(C=C1)NC[C@H](CS)N)C2=CC=CC=C2
Outline: as §1

alisertib = compound: COc1cc(Nc2ncc3c(n2)-c2ccc(Cl)cc2C(c2c(F)cccc2OC)=NC3)ccc1C(=O)O [alisertib]
Outline: as §1

[4] = compound: COc1cc2nc(-c3cc(F)ccc3O)nc(N[C@@H]3CNC[C@H]3C(C)(C)O)c2cc1OC
Outline: as §1

gefitinib = compound: COc1cc2ncnc(Nc3ccc(F)c(Cl)c3)c2cc1OCCCN1CCOCC1 [gefitinib]
Outline: as §1

lapatinib = compound: CS(=O)(=O)CCNCc1ccc(-c2ccc3ncnc(Nc4ccc(OCc5cccc(F)c5)c(Cl)c4)c3c2)o1 [lapatinib]
Outline: as §1

pictilisib = compound: CS(=O)(=O)N1CCN(Cc2cc3nc(-c4cccc5[nH]ncc45)nc(N4CCOCC4)c3s2)CC1 [pictilisib]
Outline: as §1

crizotinib = compound: C[C@@H](Oc1cc(-c2cnn(C3CCNCC3)c2)cnc1N)c1c(Cl)ccc(F)c1Cl [crizotinib]
Outline: as §1

[5] = compound: C[C@H](C1=CC=C(C=C1)C(=O)NC2=C3C=CNC3=NC=C2)N
Outline: as §1

duvelisib = compound: C[C@H](Nc1ncnc2nc[nH]c12)c1cc2cccc(Cl)c2c(=O)n1-c1ccccc1 [duvelisib]
Outline: as §1

gandotinib = compound: Cc1cc(Nc2cc(CN3CCOCC3)c3nc(C)c(Cc4ccc(Cl)cc4F)n3n2)n[nH]1 [gandotinib]
Outline: as §1

tozasertib = compound: Cc1cc(Nc2cc(N3CCN(C)CC3)nc(Sc3ccc(NC(=O)C4CC4)cc3)n2)n[nH]1 [tozasertib]
Outline: as §1

doramapimod = compound: Cc1ccc(-n2nc(C(C)(C)C)cc2NC(=O)Nc2ccc(OCCN3CCOCC3)c3ccccc23)cc1 [doramapimod]
Outline: as §1

bafetinib = compound: Cc1ccc(NC(=O)c2ccc(CN3CC[C@H](N(C)C)C3)c(C(F)(F)F)c2)cc1Nc1nccc(-c2cncnc2)n1 [bafetinib]
Outline: as §1

[6] = compound: Cc1cccc(CC(=O)N2CCc3c2ccc(-c2cn(C)c4ncnc(N)c24)c3F)n1
Outline: as §1

Target | log2 fold change (alvocidib) | log2 fold change (Tubastatin A) | log2 fold change [1] | log2 fold change (defactinib) | log2 fold change [2] | log2 fold change (encorafenib) | log2 fold change [3] | log2 fold change (alisertib) | log2 fold change [4] | log2 fold change (gefitinib) | log2 fold change (lapatinib) | log2 fold change (pictilisib) | log2 fold change (crizotinib) | log2 fold change [5] | log2 fold change (duvelisib) | log2 fold change (gandotinib) | log2 fold change (tozasertib) | log2 fold change (doramapimod) | log2 fold change (bafetinib) | log2 fold change [6]
RER1 (UniProt O15258) | inactive: -0.091 | inactive: 0.006 | inactive: 0.01 | inactive: 0.042 | inactive: 0.044 | inactive: 0.047 | inactive: -0.013 | inactive: -0.004 | inactive: 0.004 | inactive: -0.018 | inactive: 0.001 | inactive: -0.012 | inactive: -0.006 | inactive: -0.128 | inactive: 0.004 | inactive: 0.029 | inactive: 0.026 | inactive: -0.044 | inactive: -0.007 | inactive: 0.023
RDH14 (UniProt Q9HBH5) | inactive: -0.001 | inactive: -0.033 | inactive: 0.088 | inactive: -0.044 | inactive: -0.123 | inactive: -0.028 | inactive: -0.199 | inactive: 0.07 | inactive: -0.043 | inactive: -0.07 | inactive: 0.082 | inactive: -0.028 | inactive: 0.009 | inactive: -0.191 | inactive: 0.002 | inactive: 0.176 | inactive: 0.043 | inactive: 0 | inactive: -0.005 | inactive: 0.198
RBM17 (UniProt Q96I25) | inactive: 0.009 | inactive: -0.084 | inactive: 0.019 | inactive: -0.002 | inactive: -0.017 | inactive: 0.01 | inactive: 0.028 | inactive: 0.014 | inactive: -0.015 | inactive: 0.008 | inactive: 0.003 | inactive: -0.004 | inactive: -0.012 | inactive: 0.017 | inactive: -0.009 | inactive: -0.077 | inactive: -0.033 | inactive: 0.014 | inactive: -0.047 | inactive: -0.052
RBM22 (UniProt Q9NW64) | inactive: 0.022 | inactive: 0.019 | inactive: 0.009 | inactive: 0.001 | inactive: 0.179 | inactive: 0.05 | inactive: -0.11 | inactive: 0.002 | inactive: 0.026 | inactive: 0.031 | inactive: -0.01 | inactive: -0.011 | inactive: 0.038 | inactive: 0.034 | inactive: 0.008 | inactive: -0.019 | inactive: 0.026 | inactive: 0.072 | inactive: 0.001 | inactive: -0.016
RBCK1 (UniProt Q9BYM8) | inactive: 0.05 | inactive: -0.024 | inactive: 0.028 | inactive: 0 | inactive: -0.088 | inactive: 0.031 | inactive: -0.107 | inactive: -0.004 | inactive: -0.021 | inactive: 0.057 | inactive: -0.067 | inactive: -0.053 | inactive: -0.008 | inactive: 0.123 | inactive: 0.02 | inactive: -0.09 | inactive: 0.026 | inactive: -0.033 | inactive: -0.08 | inactive: -0.103
RBM23 isoform 2 (UniProt Q86U06) | inactive: -0.056 | inactive: -0.084 | inactive: 0.133 | inactive: -0.037 | inactive: 0.181 | inactive: 0.335 | inactive: -0.003 | inactive: 0.11 | inactive: 0.137 | inactive: 0.057 | inactive: 0.056 | inactive: -0.053 | inactive: -0.076 | inactive: 0.044 | inactive: -0.008 | inactive: 0.272 | inactive: 0.053 | active: 0.489 | inactive: -0.114 | inactive: 0.083
RBM14 (UniProt Q96PK6) | inactive: -0.022 | inactive: -0.021 | inactive: 0.001 | inactive: 0.017 | inactive: -0.022 | inactive: 0.065 | inactive: 0.038 | inactive: 0.045 | inactive: -0.016 | inactive: -0.077 | inactive: -0.048 | inactive: -0.02 | inactive: 0.008 | inactive: -0.053 | inactive: 0.015 | inactive: 0.165 | inactive: 0.011 | inactive: 0.055 | inactive: 0.051 | inactive: 0.093
RBM12 (UniProt Q9NTZ6) | inactive: -0.023 | inactive: 0.021 | inactive: -0.023 | inactive: -0.002 | inactive: 0.001 | inactive: 0.011 | inactive: -0.055 | inactive: 0.01 | inactive: 0.006 | inactive: -0.025 | inactive: 0.008 | inactive: -0.02 | inactive: 0.012 | inactive: -0.014 | inactive: 0.01 | inactive: -0.027 | inactive: -0.024 | inactive: 0.003 | inactive: 0.016 | inactive: 0.006
RFLNB (UniProt Q8N5W9) | inactive: 0.015 | inactive: 0.032 | inactive: 0.237 | inactive: -0.096 | inactive: 0.12 | inactive: 0.011 | inactive: -0.021 | inactive: -0.114 | inactive: 0.001 | inactive: -0.131 | inactive: 0.111 | inactive: -0.095 | inactive: -0.043 | inactive: 0.05 | inactive: -0.046 | inactive: -0.055 | inactive: 0.005 | inactive: 0.045 | inactive: 0.082 | inactive: -0.083
RECQL (UniProt P46063) | inactive: 0.016 | inactive: -0.007 | inactive: 0.019 | inactive: 0.013 | inactive: 0.02 | inactive: 0.005 | inactive: 0.087 | inactive: -0.035 | inactive: 0.008 | inactive: -0.033 | inactive: -0.002 | inactive: -0.026 | inactive: -0.022 | inactive: -0.011 | inactive: -0.012 | inactive: -0.032 | inactive: -0.021 | inactive: -0.021 | inactive: -0.02 | inactive: 0.006
RFC1 (UniProt P35251) | inactive: -0.111 | inactive: -0.082 | inactive: -0.179 | inactive: -0.003 | inactive: 0.076 | inactive: 0.159 | inactive: 0.158 | inactive: 0.017 | inactive: 0.011 | inactive: 0.005 | inactive: 0.018 | inactive: -0.048 | inactive: -0.044 | inactive: -0.052 | inactive: 0.013 | inactive: 0.032 | inactive: -0.078 | inactive: 0.051 | inactive: -0.111 | inactive: 0.032
REL isoform 2 (UniProt Q04864) | inactive: 0.061 | inactive: -0.126 | inactive: 0.003 | inactive: 0.023 | inactive: -0.056 | inactive: 0.012 | inactive: 0.029 | inactive: -0.003 | inactive: -0.019 | inactive: 0.029 | inactive: 0.014 | inactive: 0.005 | inactive: -0.025 | active: 0.32 | inactive: 0.001 | inactive: 0.074 | inactive: 0.052 | inactive: 0.023 | inactive: -0.04 | inactive: -0.072
RBM26 isoform 2 (UniProt Q5T8P6) | inactive: -0.004 | inactive: -0.051 | inactive: -0.027 | inactive: -0.021 | inactive: -0.017 | inactive: 0.031 | inactive: -0.074 | inactive: -0.006 | inactive: -0.017 | inactive: 0.005 | inactive: 0.013 | inactive: -0.004 | inactive: -0.011 | inactive: 0.063 | inactive: -0.044 | inactive: -0.135 | inactive: 0.007 | inactive: 0.056 | inactive: -0.038 | inactive: -0.035
RBBP7 isoform 2 (UniProt Q16576) | inactive: -0.005 | inactive: -0.004 | inactive: -0.021 | inactive: -0.023 | inactive: -0.028 | inactive: 0.03 | inactive: -0.034 | inactive: 0.03 | inactive: -0.003 | inactive: 0.002 | inactive: 0.002 | inactive: 0.027 | inactive: 0.008 | inactive: -0.213 | inactive: 0.025 | inactive: 0.019 | inactive: 0.017 | inactive: 0.035 | inactive: 0.018 | inactive: -0.011
RBM4 (UniProt Q9BWF3) | inactive: 0.16 | inactive: -0.168 | inactive: 0.013 | inactive: -0.011 | inactive: -0.088 | inactive: 0.089 | inactive: -0.066 | inactive: 0.037 | inactive: 0.006 | inactive: -0.004 | inactive: -0.015 | inactive: -0.01 | inactive: 0.018 | inactive: 0.183 | inactive: -0.003 | inactive: -0.097 | inactive: 0.075 | inactive: -0.109 | inactive: -0.02 | inactive: -0.069

No new results follow: entries from further up.
Target | log2 fold change (alvocidib) | log2 fold change (Tubastatin A) | log2 fold change [1] | log2 fold change (defactinib) | log2 fold change [2] | log2 fold change (encorafenib) | log2 fold change [3] | log2 fold change (alisertib) | log2 fold change [4] | log2 fold change (gefitinib) | log2 fold change (lapatinib) | log2 fold change (pictilisib) | log2 fold change (crizotinib) | log2 fold change [5] | log2 fold change (duvelisib) | log2 fold change (gandotinib) | log2 fold change (tozasertib) | log2 fold change (doramapimod) | log2 fold change (bafetinib) | log2 fold change [6]
RBCK1 (UniProt Q9BYM8) | inactive: 0.05 | inactive: -0.024 | inactive: 0.028 | inactive: 0 | inactive: -0.088 | inactive: 0.031 | inactive: -0.107 | inactive: -0.004 | inactive: -0.021 | inactive: 0.057 | inactive: -0.067 | inactive: -0.053 | inactive: -0.008 | inactive: 0.123 | inactive: 0.02 | inactive: -0.09 | inactive: 0.026 | inactive: -0.033 | inactive: -0.08 | inactive: -0.103
RBM23 isoform 2 (UniProt Q86U06) | inactive: -0.056 | inactive: -0.084 | inactive: 0.133 | inactive: -0.037 | inactive: 0.181 | inactive: 0.335 | inactive: -0.003 | inactive: 0.11 | inactive: 0.137 | inactive: 0.057 | inactive: 0.056 | inactive: -0.053 | inactive: -0.076 | inactive: 0.044 | inactive: -0.008 | inactive: 0.272 | inactive: 0.053 | active: 0.489 | inactive: -0.114 | inactive: 0.083
